Data: patent publication US9532994B2, “Agents and methods for enhancing bone formation by oxysterols in combination with bone morphogenic proteins” (THE REGENTS OF THE UNIVERSITY OF CALIFORNIA, priority 2003, dated 2017)
Some entries share one result that the patent states for a list of compounds.

Test system: M2 cells
Test: Non-toxic doses in M2 cell cultures
Format: cell-based, mouse

Compound	non-toxic doses [µM]
CC(C(=O)O)c1ccc(-c2ccccc2)c(F)c1 (centres unmarked) [Fluriprofin]	1 to 10
CC(C)Cc1ccc(C(C)C(=O)O)cc1 (centres unmarked) [Ibuprofen]	1 to 10
